Experimental data: article doi:10.1101/409490

T1: Ska1-TAP (S. cerevisiae) (UniProt P36103)
T1 sequence: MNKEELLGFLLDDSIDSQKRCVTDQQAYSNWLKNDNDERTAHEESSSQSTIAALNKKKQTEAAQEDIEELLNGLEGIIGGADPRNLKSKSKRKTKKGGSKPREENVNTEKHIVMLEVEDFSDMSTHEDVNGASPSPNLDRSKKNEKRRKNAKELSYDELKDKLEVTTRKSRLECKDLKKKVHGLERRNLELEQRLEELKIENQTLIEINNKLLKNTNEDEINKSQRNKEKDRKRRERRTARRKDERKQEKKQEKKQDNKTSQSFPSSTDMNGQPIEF


Target: T1, Ska1-TAP (S. cerevisiae)
Assay: affinity purification with mass spectrometry

binding | Binder
binds | Ski3 (protein, UniProt P17883 1-1432) MSDIKQLLKEAKQELTNRDYEETIEISEKVLKLDPDNYFAHIFLGKALSSLPASNNVSSNRNLERATNHYVSAAKLVPDNLLAWKGLFLLFRTTEVVPDILSYDEYFDLCGQYADALLKQEQSQVELINDIKLLKKTHPDCQKAFYQHLKPGSLMAETIGRHLSTPQDALLNLIKILSNIETTEIGKTLSQNRLKLKASDPDYQIKLNSFSWEIIKNSEIDQLYNQLVNILADDQKRSEIENQWLEYRIKVLKSMPLDVKKDFFTKVKEMVEDMVLVNHQSLLAWQKYFEWTDYEDLDNMDAPLIIKYFKKFPKDPLAMILYSWLSSKLSKYDIKSLESANKPPEGHKKTEKETDIKDVDETNEDEVKDRVEDEVKDRVEDEVKDQDEEAKEDEEEDLDDIEIGLLEEEVVTVLTENIVKCKNNILAHRILCQYYLLTKEYEAALPYIKNGISLIAYNIKDLGVHLPLTKREFSLDLATVYTYVDAPKDHNAALKLYDNILSGDFSNIQAKMGKGIIFIERKNWKDAMTLLTQVHEQSPNNLEVLSELSWSKAHMGYMDEALAGLDTVIKGIKGMDLRSIDFRALNLWRQAKVYIMKHASINDAKQENVKCAFKLLIQSIKILDTFAPGFSTLGDIYCHYYKDHLRAFKCYFKAFDLDAGDYTAAKYITETYASKPNWQAASSIASRLIKGEKAKAELRSNNWPFRVVGIAHLEKQEESDSIEWFQSALRVDPNDVESWVGLGQAYHACGRIEASIKVFDKAIQLRPSHTFAQYFKAISLCDVGEYLESLDILEKVCQEAATEESFQIGLVEVLMRCSLDLYSQGFLLKSVSIAKDTIERIKIIISELKCENQQVWIYLSQVLRLFIWIESKVDTLPVESLVSIFENSQFSGSEEIDSVDNIKIDTLLDSTTDDNVSIACKFLILASKYSVSDQKFTDIAGTVRASYWYNIGISELTAFITLKEPQYRDAAIFAFKKSIQLQSNTSETWIGLGIATMDINFRVSQHCFIKATALEPKATNTWFNLAMLGLKKKDTEFAQQVLNKLQSLAPQDSSPWLGMALILEEQGDIIGSSKLFAHSFILSNGRSKAAQFMYAKNVLENHINNGDDERDIETVEKLTTASIALEQFFKKSPDSQFALQCALLTLERLHHYENANELANRLIGILEKKFEKTQDERELFNFAIIKGQFARIHLGLGNFELSIENADLSQGIISESSDEKSMKTKISNHICLGLSYFFLNDFDQTLNQFQELLSISKDSKHLVVLIAKVLYDVGESDTKEIALQELTEYIATSGADLLVTLTIAAMSILDDKREDLSIILEELKALPLSKQIIDKHKDAPYLIEEITKRLYRNDTGKQVWQRSAYFFPNNLKVWERLDKNIQRRIASNGQNKVTAEEMSKLYCESKNLRSIQRGMFLCPWNVTAVKALNECF
binds | Ski8 (protein, UniProt Q02793 1-397) MSKVFIATANAGKAHDADIFSVSACNSFTVSCSGDGYLKVWDNKLLDNENPKDKSYSHFVHKSGLHHVDVLQAIERDAFELCLVATTSFSGDLLFYRITREDETKKVIFEKLDLLDSDMKKHSFWALKWGASNDRLLSHRLVATDVKGTTYIWKFHPFADESNSLTLNWSPTLELQGTVESPMTPSQFATSVDISERGLIATGFNNGTVQISELSTLRPLYNFESQHSMINNSNSIRSVKFSPQGSLLAIAHDSNSFGCITLYETEFGERIGSLSVPTHSSQASLGEFAHSSWVMSLSFNDSGETLCSAGWDGKLRFWDVKTKERITTLNMHCDDIEIEEDILAVDEHGDSLAEPGVFDVKFLKKGWRSGMGADLNESLCCVCLDRSIRWFREAGGK

No constants are given. Whether binding was seen depends on the method and setting. In cells and extracts the contact can be indirect. A yes stands for co-enrichment or nearness to the bait. Other partners may have been found.
